Reference: patent publication US8415018B2, “Article having antisoiling properties and intended to be employed in aquatic uses, in particular marine uses” (Bluestar Silicones France SAS, priority 2008, dated 2013)

Key:
[1] = Catalyst activity: pot-life or gel time on a simplified system; conditions: 0.7 mmol catalyst, 1.06 g advanced ethyl silicate, 25 g α,ω-dihydroxylated oil 14 000 centipoises
[2] = Catalyst activity: Shore A hardness (SAH) of a slug 6 mm thick over increasing times; conditions: 23° C. and 50% relative humidity; for SAH 24 h < / SAH 6 days < / SAH (n days) < / SAH 48 h <: lower part of slug; for SAH 24 h > / SAH 6 days > / SAH (n days) > / SAH 48 h >: upper part of slug

| Compound | Pot-life [1] | SAH 24 h < [2] | SAH 6 days < [2] | SAH (n days) < ([2]; 28 d) | SAH 24 h > [2] | SAH 6 days > [2] | SAH (n days) > ([2]; 28 d) | SAH 48 h < [2] | SAH (n days) < ([2]; 13 d) | SAH 48 h > [2] | SAH (n days) > ([2]; 13 d) | SAH (n days) < ([2]; 20 d) | SAH (n days) > ([2]; 20 d) |
| --- | --- | --- | --- | --- | --- | --- | --- | --- | --- | --- | --- | --- | --- |
| CCCCNC(=NC(C)C)NC(C)C [Catalyst A1, 1-butyl-2,3-diisopropylguanidine] | 0.5 min | 9 Shore A | 25 Shore A | 18 Shore A | 23 Shore A | 24 Shore A | 22 Shore A |  |  |  |  |  |  |
| CCCCN(C)/C(=N/C(C)C)NC(C)C [Catalyst A3, 1-butyl-2,3-diisopropyl-1-methylguanidine] |  | 9 Shore A |  |  | 23 Shore A |  |  | 22 Shore A | 21 Shore A | 24 Shore A | 22 Shore A |  |  |
| CCCCN(C)/C(=N/C1CCCCC1)NC1CCCCC1 [Catalyst A4, 1-butyl-2,3-dicyclohexyl-1-methyl guanidine] | 8 to 9 min | 19 Shore A | 24 Shore A |  | 21 Shore A | 24 Shore A |  | 21 Shore A | 23 Shore A | 21 Shore A | 23 Shore A |  |  |
| CN(C)C(=N)N(C)C [Comparative 2 (TMG), 1,1,3,3-tetramethylguanidine, reference compound] | 7 min |  |  |  |  |  |  |  |  |  |  |  |  |
| dimethyltin bisneodecanoate [Comparative 1 (Sn), reference compound] |  | 22.5 Shore A |  |  | 22.5 Shore A |  |  |  |  |  |  | 23 Shore A | 23 Shore A |
